Assay [1] addresses Tau K18 fragment (amino acids 244 to 372 of human Tau441) aggregates (Homo sapiens, UniProt P10636). Description: Tau K18 disaggregation assay by ThT. The note with it: read-out: Tau K18 disaggregation EC50; 2 μM K18 aggregates, 30 minutes at RT, ThT fluorescence. In kind it is biochemical.
Assay [2] concerns the target recombinant full-length (fl)Tau (human Tau 2N4R) aggregates (Homo sapiens, UniProt P10636). Description: Full-length Tau (flTau) disaggregation assay by Thioflavin T (ThT). The note with it: read-out: flTau disaggregation EC50; 2 μM flTau aggregates, 30 minutes at RT, ThT fluorescence. Here is the method:
Full-Length Tau (flTau) Disaggregation Assay by Thioflavin T (ThT)
The longest isoform of human Tau (2N4R; 441 amino acids) was expressed in bacteria and purified. For the Tau disaggregation assay by ThT, 35 μM of recombinant full-length (fl)Tau in PBS were aggregated for 24 hours at 37° C. in presence of 50 μM of heparin (Sigma-Aldrich) and 10 mM of DTT (Sigma-Aldrich) under shaking at 750 RPM. Compounds were dissolved in anhydrous dimethyl sulfoxide (DMSO, Sigma-Aldrich) to reach a concentration of 10 mM. flTau aggregates and serial dilutions of compounds were mixed together in PBS (volume 50 μL) to a final concentration of 2 μM of flTau aggregates and from 160 to 0.04 μM of compounds. The mixture was incubated for 30 minutes at room temperature (RT), then 40 μL of this mixture were transferred into a black 384-well plate assay (Perkin-Elmer) and mixed with 10 μL of 100 μM ThT in 250 mM glycine (both from Sigma-Aldrich) in PBS. Fluorescence (relative fluorescence units; RFU) was measured in monoplicate or duplicate on a Tecan reader (excitation: 440 nm; emission: 485 nm). Percentage of flTau disaggregation was then calculated and the half maximal effective concentration (EC50) was determined using GraphPad Prism version 5 (GraphPad Software) assuming a one-binding site fitting model.

Protein sequences, listed by entry. Tags and fused reporters are not part of them. Residues count along the entry.
UniProt P10636, 1-441 isoform 8: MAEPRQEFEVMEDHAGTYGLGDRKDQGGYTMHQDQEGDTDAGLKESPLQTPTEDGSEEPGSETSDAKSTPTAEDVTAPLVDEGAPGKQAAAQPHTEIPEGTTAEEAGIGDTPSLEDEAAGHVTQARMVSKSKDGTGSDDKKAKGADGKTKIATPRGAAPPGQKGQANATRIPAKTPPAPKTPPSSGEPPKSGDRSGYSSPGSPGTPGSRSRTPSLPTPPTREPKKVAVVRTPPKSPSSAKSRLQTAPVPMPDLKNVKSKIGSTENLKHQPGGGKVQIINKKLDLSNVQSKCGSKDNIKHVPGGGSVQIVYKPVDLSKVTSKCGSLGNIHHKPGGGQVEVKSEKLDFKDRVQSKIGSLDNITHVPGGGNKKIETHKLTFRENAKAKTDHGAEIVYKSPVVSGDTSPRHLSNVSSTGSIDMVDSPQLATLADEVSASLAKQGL
UniProt P10636, 561-689 limits assumed: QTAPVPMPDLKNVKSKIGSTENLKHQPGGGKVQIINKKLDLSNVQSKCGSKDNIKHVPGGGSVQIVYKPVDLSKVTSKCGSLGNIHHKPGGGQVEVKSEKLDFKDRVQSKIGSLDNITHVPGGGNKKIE

Assay [3] has as its system human neuroblastoma cell line overexpressing the full-length form of human Tau carrying the P301L mutation. Description: Reduction of intracellular Tau aggregation (AlphaLISA). Particulars: compound at 5 μM, 24 h; aggregated Tau normalized to total Tau, relative to DMSO-treated cells. Here is the method:
Reduction of Intracellular Tau Aggregation
A human neuroblastoma cell line overexpressing the full-length form of human Tau carrying the P301L mutation was cultured in complete medium [DMEM-F12 4.5 g/L Glutamax (Invitrogen), 15% FBS (Biochrom), 1% Peni/Strep (Invitrogen) supplemented with 2.5 μg/ml of G418 (Sigma-Aldrich) selection antibiotic]. The day before the experiment 5×10^5 cells/well were plated in a 6 well plate in 3 mL of complete medium. The next day, cells were incubated with DMSO or a compound of the present invention at a 5 μM for additional 24 h at 37° C. […] Phosphorylated, aggregated, and total Tau were quantified by AlphaLisa using the following antibody pairs: • HT7-Acceptor beads+biotin (BT)-Tau13-Donor beads: Total Tau • HT7-Acceptor beads+biotin (BT)-HT7-Donor beads: Aggregated human Tau […]
After incubation of this mixture at room temperature for 1 h, 25 μL of Streptavidin Donor beads (Perkin Elmer) at 25 μg/mL were added in the dark. Plates were analyzed after 30 min incubation using the EnSpire Alpha instrument and EnSpire Workstation version 3.00. Data for aggregated Tau were normalized to total Tau and then expressed as percentage of the DMSO-treated cells.

The match of structure and compound is tentative.

A word on the EC50: it is the midpoint of the concentration-response curve.

As for `Cn1c2c(c3cc(F)ccc31)CN(c1ccc3nc(N4CCOCC4)oc3c1)CC2` [Example 15], the concentration for a half-maximal effect (EC50) in assay [1] and in assay [2] was less than 10 µM throughout. Besides, in assay [3], the “% Reduction of intracellular Tau aggregation” value is on record as “++ (++ % 50 < x < 25)”.

(Values after US10633383B2, “Compounds for the treatment, alleviation or prevention of disorders associated with Tau aggregates” (AC Immune SA, priority 2018, dated 2020).)
